# Some of the results follow.
# The chains behind the UniProt entries cited, without tags or fusion partners. Where a name states a change or a piece, a line headed by the entry shows the natural chain unless it says otherwise.
# UniProt Q9UHB6: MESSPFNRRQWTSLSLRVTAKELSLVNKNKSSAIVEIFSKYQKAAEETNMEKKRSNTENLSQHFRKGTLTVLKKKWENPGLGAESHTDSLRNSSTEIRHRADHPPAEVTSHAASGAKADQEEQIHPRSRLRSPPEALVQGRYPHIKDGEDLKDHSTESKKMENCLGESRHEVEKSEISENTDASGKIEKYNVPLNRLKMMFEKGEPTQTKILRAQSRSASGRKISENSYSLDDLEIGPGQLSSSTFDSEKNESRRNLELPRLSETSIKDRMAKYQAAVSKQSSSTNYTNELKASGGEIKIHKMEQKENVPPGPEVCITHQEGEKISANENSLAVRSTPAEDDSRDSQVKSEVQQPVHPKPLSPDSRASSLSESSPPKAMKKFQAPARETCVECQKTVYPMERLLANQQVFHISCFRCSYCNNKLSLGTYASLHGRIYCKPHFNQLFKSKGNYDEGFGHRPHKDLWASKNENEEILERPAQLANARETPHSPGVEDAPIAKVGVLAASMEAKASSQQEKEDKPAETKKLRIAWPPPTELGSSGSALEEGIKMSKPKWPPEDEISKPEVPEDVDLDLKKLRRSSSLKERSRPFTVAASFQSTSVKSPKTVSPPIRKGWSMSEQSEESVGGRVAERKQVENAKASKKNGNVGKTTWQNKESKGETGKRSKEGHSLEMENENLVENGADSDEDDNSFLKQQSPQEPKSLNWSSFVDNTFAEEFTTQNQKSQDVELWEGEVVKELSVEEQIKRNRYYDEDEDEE
# UniProt P17931, whole entry: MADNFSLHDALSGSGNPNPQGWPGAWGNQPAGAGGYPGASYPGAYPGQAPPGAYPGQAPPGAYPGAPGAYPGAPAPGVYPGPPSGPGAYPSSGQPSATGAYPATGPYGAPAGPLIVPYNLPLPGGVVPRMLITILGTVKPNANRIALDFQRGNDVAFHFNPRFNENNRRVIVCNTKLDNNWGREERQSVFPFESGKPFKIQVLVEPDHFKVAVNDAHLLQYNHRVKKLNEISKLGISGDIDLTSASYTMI
# UniProt O60711: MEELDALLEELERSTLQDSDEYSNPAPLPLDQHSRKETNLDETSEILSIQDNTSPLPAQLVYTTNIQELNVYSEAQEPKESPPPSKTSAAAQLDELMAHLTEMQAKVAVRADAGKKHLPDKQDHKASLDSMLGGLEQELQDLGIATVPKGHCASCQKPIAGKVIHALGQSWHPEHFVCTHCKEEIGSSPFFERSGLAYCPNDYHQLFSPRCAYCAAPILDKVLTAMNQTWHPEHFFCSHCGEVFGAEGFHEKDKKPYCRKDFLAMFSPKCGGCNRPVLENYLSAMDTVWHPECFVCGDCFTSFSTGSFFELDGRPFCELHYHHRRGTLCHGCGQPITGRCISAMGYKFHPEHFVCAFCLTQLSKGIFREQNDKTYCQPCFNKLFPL
# UniProt Q15345: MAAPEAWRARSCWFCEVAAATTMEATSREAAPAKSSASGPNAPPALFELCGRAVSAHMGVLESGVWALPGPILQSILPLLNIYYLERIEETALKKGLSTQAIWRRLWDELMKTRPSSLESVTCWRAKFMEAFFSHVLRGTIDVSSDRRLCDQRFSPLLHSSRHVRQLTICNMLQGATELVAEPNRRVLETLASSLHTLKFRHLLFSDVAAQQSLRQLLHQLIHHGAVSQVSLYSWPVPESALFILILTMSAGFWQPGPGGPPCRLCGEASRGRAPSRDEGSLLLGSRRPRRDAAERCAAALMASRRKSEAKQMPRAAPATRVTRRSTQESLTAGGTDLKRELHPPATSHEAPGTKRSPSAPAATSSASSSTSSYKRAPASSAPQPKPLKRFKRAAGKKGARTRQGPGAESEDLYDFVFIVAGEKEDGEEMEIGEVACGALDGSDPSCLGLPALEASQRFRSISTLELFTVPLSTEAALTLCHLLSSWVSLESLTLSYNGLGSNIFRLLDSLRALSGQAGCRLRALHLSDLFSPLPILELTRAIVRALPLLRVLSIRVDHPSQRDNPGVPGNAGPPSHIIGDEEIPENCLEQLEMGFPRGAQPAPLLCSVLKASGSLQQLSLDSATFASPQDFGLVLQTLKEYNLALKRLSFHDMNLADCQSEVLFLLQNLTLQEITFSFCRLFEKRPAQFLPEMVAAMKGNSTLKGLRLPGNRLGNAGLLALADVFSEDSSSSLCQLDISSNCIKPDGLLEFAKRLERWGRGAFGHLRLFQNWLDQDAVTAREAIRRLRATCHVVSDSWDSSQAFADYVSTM
# UniProt Q96B70: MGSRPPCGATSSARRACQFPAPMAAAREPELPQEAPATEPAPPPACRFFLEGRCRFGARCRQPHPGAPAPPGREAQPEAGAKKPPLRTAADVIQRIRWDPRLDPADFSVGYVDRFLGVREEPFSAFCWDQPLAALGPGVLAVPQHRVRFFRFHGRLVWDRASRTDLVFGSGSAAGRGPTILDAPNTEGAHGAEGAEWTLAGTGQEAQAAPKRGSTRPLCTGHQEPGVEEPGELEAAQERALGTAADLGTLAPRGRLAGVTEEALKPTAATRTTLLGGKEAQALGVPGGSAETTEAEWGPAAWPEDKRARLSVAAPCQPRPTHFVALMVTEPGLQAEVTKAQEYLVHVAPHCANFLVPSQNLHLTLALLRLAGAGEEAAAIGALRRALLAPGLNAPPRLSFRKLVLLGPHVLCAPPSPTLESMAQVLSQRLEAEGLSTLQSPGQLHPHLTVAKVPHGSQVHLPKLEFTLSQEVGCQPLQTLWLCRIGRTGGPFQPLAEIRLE
# UniProt Q9H2I8: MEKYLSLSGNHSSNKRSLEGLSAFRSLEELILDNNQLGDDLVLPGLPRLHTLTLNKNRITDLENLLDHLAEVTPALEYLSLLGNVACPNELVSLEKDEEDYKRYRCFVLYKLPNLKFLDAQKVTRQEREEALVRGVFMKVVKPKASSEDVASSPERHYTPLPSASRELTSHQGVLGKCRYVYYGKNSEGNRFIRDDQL
# UniProt Q9Y2L9: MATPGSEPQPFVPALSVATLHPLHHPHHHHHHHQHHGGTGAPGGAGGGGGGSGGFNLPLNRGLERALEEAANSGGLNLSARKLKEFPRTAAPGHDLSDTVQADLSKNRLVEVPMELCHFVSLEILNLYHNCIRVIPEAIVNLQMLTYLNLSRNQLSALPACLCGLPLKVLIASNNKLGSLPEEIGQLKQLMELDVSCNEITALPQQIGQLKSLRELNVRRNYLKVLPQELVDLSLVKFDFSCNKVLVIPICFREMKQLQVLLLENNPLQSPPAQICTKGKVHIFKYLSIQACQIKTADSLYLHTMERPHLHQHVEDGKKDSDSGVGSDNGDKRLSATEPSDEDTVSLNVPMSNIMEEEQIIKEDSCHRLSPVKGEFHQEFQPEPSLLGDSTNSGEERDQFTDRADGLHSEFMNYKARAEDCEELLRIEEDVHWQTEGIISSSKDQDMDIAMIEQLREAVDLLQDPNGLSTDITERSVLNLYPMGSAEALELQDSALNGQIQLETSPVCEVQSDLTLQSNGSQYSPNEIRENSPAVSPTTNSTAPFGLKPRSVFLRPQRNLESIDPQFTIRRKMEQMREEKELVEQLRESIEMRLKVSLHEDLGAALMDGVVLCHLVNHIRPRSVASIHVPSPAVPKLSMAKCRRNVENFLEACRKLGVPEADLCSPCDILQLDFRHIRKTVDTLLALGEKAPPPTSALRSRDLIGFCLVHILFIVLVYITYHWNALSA
# UniProt Q96II8: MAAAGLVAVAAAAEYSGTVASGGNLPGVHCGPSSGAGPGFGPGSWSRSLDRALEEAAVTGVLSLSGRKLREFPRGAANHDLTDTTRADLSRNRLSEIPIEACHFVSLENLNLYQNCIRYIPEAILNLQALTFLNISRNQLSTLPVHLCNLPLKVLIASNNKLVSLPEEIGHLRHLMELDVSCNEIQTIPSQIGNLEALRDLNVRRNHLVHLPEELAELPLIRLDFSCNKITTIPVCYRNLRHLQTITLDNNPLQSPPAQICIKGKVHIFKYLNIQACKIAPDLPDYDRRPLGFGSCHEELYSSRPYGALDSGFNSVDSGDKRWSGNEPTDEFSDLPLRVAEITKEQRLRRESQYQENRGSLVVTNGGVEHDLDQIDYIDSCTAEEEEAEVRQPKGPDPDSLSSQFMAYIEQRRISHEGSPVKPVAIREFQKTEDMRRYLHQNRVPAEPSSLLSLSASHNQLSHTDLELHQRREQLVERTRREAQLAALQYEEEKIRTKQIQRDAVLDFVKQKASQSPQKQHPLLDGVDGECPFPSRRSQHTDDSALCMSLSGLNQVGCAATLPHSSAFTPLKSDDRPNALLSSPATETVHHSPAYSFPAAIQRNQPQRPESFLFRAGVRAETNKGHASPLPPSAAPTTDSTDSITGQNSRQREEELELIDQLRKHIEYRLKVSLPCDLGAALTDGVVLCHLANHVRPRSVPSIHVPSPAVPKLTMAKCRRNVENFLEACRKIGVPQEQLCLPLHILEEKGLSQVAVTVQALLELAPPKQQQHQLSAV
# UniProt O75427: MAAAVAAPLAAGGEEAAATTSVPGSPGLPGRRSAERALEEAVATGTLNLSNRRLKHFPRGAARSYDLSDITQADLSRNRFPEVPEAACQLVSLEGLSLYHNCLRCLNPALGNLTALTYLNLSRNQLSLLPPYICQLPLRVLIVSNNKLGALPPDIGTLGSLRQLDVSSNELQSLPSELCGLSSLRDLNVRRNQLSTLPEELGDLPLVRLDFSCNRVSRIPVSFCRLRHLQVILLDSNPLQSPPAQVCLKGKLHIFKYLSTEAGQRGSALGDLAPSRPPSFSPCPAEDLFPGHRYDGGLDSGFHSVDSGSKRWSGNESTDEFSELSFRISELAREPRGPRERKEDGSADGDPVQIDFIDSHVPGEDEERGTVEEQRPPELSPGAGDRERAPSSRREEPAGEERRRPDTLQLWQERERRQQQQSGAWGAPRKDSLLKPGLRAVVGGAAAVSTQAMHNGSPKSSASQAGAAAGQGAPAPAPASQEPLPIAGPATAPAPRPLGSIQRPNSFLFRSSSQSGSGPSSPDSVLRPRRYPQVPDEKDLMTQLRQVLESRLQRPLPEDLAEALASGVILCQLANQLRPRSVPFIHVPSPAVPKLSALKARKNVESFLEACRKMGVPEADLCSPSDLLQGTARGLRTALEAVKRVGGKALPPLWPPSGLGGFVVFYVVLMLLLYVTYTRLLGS
# UniProt Q9UIQ6, whole entry: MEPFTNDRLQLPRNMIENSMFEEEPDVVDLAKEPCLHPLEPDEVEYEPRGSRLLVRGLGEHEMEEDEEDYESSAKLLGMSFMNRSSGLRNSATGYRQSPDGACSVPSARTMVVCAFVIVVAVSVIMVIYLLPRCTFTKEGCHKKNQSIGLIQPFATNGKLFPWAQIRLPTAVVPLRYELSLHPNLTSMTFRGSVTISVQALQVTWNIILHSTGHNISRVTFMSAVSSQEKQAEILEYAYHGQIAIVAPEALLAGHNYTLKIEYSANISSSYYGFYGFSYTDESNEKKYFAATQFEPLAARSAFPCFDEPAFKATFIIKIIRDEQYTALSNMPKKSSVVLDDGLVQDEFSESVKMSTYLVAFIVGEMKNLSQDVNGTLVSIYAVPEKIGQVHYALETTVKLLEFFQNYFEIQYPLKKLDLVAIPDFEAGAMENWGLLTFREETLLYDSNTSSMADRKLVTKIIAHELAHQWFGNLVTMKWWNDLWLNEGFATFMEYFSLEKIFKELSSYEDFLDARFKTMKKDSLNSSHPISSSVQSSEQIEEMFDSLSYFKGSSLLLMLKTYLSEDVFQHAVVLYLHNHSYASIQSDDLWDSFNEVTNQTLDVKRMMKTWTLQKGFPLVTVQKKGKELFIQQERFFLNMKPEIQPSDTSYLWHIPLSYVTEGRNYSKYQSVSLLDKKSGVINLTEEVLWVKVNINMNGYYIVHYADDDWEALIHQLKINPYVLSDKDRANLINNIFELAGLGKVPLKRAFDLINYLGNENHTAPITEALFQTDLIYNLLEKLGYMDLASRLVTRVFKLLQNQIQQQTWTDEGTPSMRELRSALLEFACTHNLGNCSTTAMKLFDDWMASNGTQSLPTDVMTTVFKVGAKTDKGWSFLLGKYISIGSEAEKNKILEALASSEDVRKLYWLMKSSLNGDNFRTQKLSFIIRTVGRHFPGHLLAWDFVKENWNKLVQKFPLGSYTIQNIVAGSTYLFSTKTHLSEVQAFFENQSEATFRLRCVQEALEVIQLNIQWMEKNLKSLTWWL
# UniProt Q8NHJ6, whole entry, looked up: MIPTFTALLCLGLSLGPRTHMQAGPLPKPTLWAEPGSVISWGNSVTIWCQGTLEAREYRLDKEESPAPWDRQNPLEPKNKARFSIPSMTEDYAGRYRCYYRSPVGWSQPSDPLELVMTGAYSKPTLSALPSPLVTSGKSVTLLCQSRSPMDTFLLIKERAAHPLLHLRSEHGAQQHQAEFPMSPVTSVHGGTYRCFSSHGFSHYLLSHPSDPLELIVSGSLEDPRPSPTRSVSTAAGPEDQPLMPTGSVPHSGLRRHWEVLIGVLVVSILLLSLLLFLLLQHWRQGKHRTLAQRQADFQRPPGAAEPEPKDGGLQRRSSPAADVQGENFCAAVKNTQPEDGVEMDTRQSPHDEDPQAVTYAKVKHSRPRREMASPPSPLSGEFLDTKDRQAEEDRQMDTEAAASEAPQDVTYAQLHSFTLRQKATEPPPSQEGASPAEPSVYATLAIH
# Compound: Cc1cc(ccc1-c1ccccc1)C(=O)N1CCCN(CC1)C(=O)CCl [compound 10]
# Test: probe-labelled cysteine peptide fold change vs DMSO (competition) (log2 fold change); higher = less target engagement (more negative = stronger competition)
# Details: THP-1, incubation time: 4 h
# 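Also: competitive profiling in live THP-1 cells: cysteine peptides tagged with an iodoacetamide desthiobiotin (IA-DTB) probe, intensity after compound treatment relative to DMSO-treated cells.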
Target,probe-labelled cysteine peptide fold change (10 µM),probe-labelled cysteine peptide fold change (50 µM)
LIMA1_Q9UHB6_414_LLANQQVFHISCFR (UniProt Q9UHB6),0.102,0.0802
LGALS3_P17931_173_VIVCNTK (UniProt P17931),0.0884,-0.00184
LRPPRC_P42704_113_VFNDTCR (UniProt P42704),-0.111,-0.0837
LPXN_O60711_178_VIHALGQSWHPEHFVCTHCK (UniProt O60711),0.187,-0.0881
LRRC41_Q15345_607_GAQPAPLLCSVLK (UniProt Q15345),-0.179,-0.273
LENG9_Q96B70_127_EEPFSAFCWDQPLAALGPGVLAVPQHR (UniProt Q96B70),0.199,-0.344
LPXN_O60711_332_GTLCHGCGQPITGR (UniProt O60711),-0.0698,0.039
LRRC41_Q15345_123_TRPSSLESVTCWR (UniProt Q15345),-0.327,-0.356
LRMDA_Q9H2I8_106_CFVLYK (UniProt Q9H2I8),0.108,0.0381
LRCH1_Q9Y2L9_251_VLVIPICFR (UniProt Q9Y2L9),-0.064,-0.161
LRCH3_Q96II8_182_HLMELDVSCNEIQTIPSQIGNLEALR (UniProt Q96II8),-0.231,-0.12
LRCH4_O75427_213_LDFSCNR (UniProt O75427),0.0491,-0.112
LNPEP_Q9UIQ6_35_EPCLHPLEPDEVEYEPR (UniProt Q9UIQ6),-0.24,-0.268
LILRB4_Q8NHJ6_144_SVTLLCQSR (UniProt Q8NHJ6),-0.108,0.082
LIMA1_Q9UHB6_316_ENVPPGPEVCITHQEGEK (UniProt Q9UHB6),-0.276,-0.124

# Source: the supplement of paper PMC12067093, “Discovery and optimisation of a covalent ligand for TRIM25 and its application to targeted protein ubiquitination” (Chemical Science, 2025)
